Results: the supplement of paper PMC6411743
± gives the standard deviation of the averaged measurements. The list shows a part of the results, in another mix than the full data. Small differences around the control level are noise.

The chains behind the UniProt entries cited, without tags or fusion partners. Where a name states a change or a piece, a line headed by the entry shows the natural chain unless it says otherwise.
UniProt Q9UNT1: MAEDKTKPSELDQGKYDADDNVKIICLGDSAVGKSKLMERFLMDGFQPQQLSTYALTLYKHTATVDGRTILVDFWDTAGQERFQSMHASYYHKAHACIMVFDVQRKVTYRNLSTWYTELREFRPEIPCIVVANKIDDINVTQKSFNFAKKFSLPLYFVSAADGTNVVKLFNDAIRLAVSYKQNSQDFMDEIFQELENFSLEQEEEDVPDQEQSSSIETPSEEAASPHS
UniProt Q8TBF5: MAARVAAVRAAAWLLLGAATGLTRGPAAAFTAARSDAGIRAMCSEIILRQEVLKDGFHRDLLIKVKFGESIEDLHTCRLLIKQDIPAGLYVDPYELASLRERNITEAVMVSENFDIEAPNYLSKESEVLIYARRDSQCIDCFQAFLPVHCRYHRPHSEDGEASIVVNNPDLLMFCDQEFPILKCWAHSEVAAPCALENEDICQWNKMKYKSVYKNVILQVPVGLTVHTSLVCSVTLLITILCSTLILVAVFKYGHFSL
UniProt P34913, whole entry: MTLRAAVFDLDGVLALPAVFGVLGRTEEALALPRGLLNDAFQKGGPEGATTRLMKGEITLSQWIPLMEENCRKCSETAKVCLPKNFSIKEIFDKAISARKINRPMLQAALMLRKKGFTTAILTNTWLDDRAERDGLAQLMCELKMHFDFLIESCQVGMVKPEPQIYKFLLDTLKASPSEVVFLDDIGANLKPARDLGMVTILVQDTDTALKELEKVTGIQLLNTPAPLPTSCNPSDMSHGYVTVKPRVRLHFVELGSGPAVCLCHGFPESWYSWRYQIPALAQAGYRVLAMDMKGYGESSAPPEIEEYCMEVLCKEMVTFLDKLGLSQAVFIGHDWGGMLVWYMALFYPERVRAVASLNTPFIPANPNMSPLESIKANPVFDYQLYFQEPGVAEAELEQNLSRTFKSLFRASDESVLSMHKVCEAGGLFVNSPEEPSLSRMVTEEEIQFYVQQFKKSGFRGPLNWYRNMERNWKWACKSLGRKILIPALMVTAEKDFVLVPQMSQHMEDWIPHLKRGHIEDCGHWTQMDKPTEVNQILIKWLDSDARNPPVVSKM
UniProt Q99439: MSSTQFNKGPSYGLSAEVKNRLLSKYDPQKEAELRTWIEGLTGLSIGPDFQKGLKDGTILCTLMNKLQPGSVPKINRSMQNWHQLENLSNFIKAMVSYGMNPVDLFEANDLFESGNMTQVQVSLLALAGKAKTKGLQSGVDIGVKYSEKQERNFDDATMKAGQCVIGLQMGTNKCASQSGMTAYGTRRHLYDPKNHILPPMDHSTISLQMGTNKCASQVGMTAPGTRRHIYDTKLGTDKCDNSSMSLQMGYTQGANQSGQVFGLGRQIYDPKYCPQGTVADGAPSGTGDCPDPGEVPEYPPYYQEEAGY
UniProt Q0PNE2: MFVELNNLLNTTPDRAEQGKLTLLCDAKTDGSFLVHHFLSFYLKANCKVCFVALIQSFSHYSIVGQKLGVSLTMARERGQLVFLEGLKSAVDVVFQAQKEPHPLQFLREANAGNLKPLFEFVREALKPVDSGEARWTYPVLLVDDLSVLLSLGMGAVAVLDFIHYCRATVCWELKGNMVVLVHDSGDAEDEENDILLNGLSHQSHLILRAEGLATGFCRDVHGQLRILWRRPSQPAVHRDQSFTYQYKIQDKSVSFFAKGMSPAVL
UniProt P60033: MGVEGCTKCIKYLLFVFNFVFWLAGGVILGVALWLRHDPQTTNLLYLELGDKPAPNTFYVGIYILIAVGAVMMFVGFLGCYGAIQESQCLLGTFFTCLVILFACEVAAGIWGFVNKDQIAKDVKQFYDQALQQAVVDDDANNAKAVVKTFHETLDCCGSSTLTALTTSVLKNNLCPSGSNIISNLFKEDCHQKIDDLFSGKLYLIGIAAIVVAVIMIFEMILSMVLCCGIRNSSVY
UniProt A6NKD9: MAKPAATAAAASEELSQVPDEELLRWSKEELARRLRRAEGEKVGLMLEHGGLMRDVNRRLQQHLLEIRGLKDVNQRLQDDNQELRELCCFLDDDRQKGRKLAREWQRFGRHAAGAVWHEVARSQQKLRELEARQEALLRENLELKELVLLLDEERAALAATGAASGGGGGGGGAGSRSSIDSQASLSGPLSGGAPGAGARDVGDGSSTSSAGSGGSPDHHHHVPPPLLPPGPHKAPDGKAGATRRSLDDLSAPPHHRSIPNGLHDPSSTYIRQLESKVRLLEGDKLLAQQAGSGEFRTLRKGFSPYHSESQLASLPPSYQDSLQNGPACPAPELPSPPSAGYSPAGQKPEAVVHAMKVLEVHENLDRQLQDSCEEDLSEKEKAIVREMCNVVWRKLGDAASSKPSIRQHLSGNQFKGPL
UniProt Q9UGP4: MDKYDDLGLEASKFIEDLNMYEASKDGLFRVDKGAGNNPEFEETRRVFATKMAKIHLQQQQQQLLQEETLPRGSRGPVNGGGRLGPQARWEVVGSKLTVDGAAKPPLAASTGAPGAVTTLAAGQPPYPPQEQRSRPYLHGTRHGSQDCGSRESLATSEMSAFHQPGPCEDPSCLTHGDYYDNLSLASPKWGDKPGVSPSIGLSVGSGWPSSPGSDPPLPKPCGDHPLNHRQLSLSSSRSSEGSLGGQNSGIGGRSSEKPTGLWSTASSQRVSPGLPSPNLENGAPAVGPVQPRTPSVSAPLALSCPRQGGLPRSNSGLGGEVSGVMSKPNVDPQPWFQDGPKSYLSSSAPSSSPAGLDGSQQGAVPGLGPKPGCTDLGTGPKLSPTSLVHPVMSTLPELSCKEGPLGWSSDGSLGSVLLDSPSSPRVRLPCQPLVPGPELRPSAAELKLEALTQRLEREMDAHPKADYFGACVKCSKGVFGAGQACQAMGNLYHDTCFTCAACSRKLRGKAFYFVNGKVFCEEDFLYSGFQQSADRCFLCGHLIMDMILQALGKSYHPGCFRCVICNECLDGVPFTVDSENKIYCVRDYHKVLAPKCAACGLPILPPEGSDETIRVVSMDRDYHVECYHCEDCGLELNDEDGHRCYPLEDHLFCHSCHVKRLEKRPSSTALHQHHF
UniProt A2RTX5: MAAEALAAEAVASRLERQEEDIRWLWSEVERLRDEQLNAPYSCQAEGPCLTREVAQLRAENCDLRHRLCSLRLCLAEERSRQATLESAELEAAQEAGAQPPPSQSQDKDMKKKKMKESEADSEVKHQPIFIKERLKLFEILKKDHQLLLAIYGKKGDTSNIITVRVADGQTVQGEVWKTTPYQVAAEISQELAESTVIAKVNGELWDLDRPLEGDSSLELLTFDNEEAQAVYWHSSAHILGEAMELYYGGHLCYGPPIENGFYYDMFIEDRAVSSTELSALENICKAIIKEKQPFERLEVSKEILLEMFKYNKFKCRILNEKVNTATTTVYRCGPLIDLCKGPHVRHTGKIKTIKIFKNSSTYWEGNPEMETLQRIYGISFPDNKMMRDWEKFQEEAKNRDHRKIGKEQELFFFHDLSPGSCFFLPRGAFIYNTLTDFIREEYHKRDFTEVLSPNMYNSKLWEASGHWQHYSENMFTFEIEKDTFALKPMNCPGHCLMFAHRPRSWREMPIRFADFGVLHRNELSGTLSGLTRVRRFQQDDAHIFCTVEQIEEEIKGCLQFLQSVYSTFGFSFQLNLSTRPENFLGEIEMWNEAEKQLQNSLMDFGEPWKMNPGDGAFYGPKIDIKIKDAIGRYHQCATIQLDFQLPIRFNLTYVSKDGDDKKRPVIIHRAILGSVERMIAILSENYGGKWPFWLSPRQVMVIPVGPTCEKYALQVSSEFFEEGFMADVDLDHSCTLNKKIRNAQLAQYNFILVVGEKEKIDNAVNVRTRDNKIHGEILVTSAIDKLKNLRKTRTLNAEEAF
UniProt A8MWD9, whole entry, looked up: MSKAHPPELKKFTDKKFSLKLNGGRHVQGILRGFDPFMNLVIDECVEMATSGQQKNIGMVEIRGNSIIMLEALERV
UniProt O96015: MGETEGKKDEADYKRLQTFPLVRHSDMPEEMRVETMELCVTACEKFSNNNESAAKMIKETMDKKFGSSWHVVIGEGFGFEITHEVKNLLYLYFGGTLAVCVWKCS
UniProt Q9BQ75: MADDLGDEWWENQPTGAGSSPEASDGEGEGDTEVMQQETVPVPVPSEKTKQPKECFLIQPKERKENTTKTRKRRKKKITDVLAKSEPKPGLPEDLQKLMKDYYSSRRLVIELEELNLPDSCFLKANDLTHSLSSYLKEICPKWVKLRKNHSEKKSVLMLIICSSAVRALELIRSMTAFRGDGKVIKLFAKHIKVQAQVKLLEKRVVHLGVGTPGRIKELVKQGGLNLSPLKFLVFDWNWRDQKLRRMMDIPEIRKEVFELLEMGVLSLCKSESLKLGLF
UniProt Q9H3R5: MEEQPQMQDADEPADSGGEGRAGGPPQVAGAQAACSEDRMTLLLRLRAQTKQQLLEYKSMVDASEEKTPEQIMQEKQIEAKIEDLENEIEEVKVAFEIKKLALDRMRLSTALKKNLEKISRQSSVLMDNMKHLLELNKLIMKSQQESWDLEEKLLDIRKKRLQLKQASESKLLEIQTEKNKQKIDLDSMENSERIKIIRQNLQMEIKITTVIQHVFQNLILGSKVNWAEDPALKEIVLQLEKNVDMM
UniProt P19256, whole entry: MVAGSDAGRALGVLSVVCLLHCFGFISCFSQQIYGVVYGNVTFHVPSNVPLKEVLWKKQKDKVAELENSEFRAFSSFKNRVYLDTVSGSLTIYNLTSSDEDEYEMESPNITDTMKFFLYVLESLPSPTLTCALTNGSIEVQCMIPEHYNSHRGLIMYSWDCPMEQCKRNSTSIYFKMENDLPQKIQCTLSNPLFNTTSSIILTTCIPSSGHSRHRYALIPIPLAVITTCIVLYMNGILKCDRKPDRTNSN
UniProt Q9Y262, whole entry: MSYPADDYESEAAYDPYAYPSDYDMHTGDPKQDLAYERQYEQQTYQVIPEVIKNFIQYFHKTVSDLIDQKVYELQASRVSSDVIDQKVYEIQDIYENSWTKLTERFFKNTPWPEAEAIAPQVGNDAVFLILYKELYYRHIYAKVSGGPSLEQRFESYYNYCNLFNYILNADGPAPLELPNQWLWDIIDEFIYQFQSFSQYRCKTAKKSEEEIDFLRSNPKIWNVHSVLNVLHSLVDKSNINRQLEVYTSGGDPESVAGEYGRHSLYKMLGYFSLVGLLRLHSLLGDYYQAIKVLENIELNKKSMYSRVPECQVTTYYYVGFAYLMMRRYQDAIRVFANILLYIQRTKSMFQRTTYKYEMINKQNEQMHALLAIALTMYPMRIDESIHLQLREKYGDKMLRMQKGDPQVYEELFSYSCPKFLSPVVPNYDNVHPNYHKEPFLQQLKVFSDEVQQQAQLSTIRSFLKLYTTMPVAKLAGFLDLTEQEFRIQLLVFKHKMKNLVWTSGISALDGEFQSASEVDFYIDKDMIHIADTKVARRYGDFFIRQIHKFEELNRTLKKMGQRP
UniProt A4D1U4: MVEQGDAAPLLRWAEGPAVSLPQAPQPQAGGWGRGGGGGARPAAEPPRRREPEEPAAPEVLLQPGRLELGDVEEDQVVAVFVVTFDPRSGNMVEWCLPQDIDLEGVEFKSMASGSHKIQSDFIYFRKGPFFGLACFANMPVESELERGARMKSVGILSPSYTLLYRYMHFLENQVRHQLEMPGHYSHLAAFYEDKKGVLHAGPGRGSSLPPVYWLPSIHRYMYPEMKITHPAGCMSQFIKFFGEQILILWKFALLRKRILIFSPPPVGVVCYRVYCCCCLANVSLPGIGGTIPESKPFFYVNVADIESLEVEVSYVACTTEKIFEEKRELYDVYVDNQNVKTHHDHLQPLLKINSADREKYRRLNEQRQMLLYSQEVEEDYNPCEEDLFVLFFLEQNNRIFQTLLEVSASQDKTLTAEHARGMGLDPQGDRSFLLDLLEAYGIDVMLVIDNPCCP
UniProt Q9BY41: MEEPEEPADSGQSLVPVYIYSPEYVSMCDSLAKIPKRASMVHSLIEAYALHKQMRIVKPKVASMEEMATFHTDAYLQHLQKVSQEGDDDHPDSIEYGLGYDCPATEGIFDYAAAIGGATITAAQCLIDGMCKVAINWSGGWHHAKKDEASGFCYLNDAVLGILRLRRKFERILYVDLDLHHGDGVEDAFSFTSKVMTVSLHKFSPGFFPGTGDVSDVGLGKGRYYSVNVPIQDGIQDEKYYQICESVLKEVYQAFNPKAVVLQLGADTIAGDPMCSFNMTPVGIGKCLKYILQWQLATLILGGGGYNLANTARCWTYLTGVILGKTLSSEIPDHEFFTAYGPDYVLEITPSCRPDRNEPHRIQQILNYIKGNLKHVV
UniProt Q9BUL8: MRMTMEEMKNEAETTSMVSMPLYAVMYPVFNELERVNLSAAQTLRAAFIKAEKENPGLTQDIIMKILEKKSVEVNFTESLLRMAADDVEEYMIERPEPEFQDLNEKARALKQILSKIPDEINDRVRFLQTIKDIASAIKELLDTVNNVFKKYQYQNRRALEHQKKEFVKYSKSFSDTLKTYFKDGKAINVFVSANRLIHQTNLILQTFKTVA
UniProt O60573: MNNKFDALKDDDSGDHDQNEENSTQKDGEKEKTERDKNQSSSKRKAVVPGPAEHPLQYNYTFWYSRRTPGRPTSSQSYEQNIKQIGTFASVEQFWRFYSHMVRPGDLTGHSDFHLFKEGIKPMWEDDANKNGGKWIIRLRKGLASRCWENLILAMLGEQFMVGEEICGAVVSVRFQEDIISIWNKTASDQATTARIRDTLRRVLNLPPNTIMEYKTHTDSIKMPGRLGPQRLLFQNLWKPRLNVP

Compound: Nc1ncnc2c1ncn2[C@@H]1O[C@H](COP(=O)(O)OP(=O)(O)NP(=O)(O)O)[C@@H](O)[C@H]1O [adenylyl imidodiphosphate]
Assay: NP40-soluble protein abundance relative to vehicle (solubility fold change) (ratio); higher = more soluble protein in presence of AMP-PNP
Method in brief: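 Data come from three independent experiments in which Dounce-homogenised Jurkat crude lysate was treated at eight concentrations from 0.1 to 10 mM. Treatment ran 10 min at room temperature and then 3 min at 37 °C, after which 0.8% NP40 and benzonase were added for 60 min at 4 °C before ultracentrifugation. The supernatant underwent TMT labelling and LC-MS/MS, and vsn-normalised intensities were expressed as fold change against the detergent-processed vehicle in each replicate.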

Target | NP40-soluble protein abundance (concentration: 0.1mM) | NP40-soluble protein abundance (concentration: 0.5mM)
D6R9C7 and related entries (UniProt Q6NW29) | 0.996 ± 0.02 | 0.985 ± 0.018
D3DTX6 and related entries (UniProt Q96SB3) | 1 ± 0.019 | 0.998 ± 0.04
C9K025 and related entries (UniProt P18077) | 1.0101 ± 0.00053 | 1.01 ± 0.031
C9JA08 and related entries (UniProt Q96D46) | 0.996 ± 0.025 | 0.997 ± 0.012
C9JEH3 and related entries (UniProt Q13685) | 1.03 ± 0.028 | 1.04 ± 0.013
B7ZBK4 and related entries (UniProt Q92664) | 1.01 ± 0.046 | 0.996 ± 0.051
B0YIW6 and related entries (UniProt P48444) | 1.013 ± 0.0037 | 0.999 ± 0.029
B4DP61 and related entries (UniProt Q16637+E7EQZ4+B4DP61) | 1.0139 ± 0.00047 | 0.993 ± 0.087
E2QRD4 and related entries (UniProt Q6ZRQ5) | 1.01 ± 0.037 | 0.988 ± 0.019
B4DY09 and related entries (UniProt Q12905) | 1.03 ± 0.026 | 1.089 ± 0.0086
E5RGX5 and related entries (UniProt Q93045) | 1.01 ± 0.066 | 0.981 ± 0.059
UniProt C9JLW8 and related entries | 0.99607 ± 0.00032 | 0.981 ± 0.037
C9J0Q5 and related entries (UniProt Q9Y618) | 1 ± 0.014 | 0.994 ± 0.043
B7Z2L0 and related entries (UniProt Q9UHQ4) | 0.9855 ± 0.0061 | 1.01 ± 0.066
B1AQ74 and related entries (UniProt Q6NSI4) | 0.9777 ± 0.0062 | 0.996 ± 0.019
A8MZH8 and related entries (UniProt P53801) | 1.02 ± 0.071 | 1 ± 0.072
UNC119B (UniProt A6NIH7) | 0.985 ± 0.035 | 1.009 ± 0.0061
A8MXF6 and related entries (UniProt Q9UNT1+Q9UBK7+B7ZBD5+A8MXF6) | 0.962 ± 0.014 | 0.979 ± 0.049
B8ZZQ6 and related entries (UniProt P06454) | 0.989 ± 0.044 | 1.02 ± 0.053
C9J8B8 and related entries (UniProt Q969S8) | 0.964 ± 0.001 | 0.9782 ± 0.0042
C9JF71 and related entries (UniProt Q8TBF5) | 0.998 ± 0.035 | 1.01 ± 0.018
UniProt A2RU67 | 0.9912 ± 0.005 | 1.01 ± 0.021
B5MCX3 and related entries (UniProt Q15019) | 1.01 ± 0.019 | 1.011 ± 0.0065
B7ZAX5 and related entries (UniProt Q01415) | 0.9831 ± 0.00067 | 0.975 ± 0.051
E5RFU2 and related entries (UniProt P34913) | 0.993 ± 0.037 | 0.984 ± 0.03

Target | NP40-soluble protein abundance (concentration: 0.1mM) | NP40-soluble protein abundance (concentration: 0.5mM)
B4DDF4 and related entries (UniProt Q99439) | 0.978 ± 0.039 | 1.03 ± 0.062
C9JLV4 and related entries (UniProt O14727) | 0.997 ± 0.055 | 1.01 ± 0.057
C9IYN7 and related entries (UniProt Q0PNE2) | 1.02 ± 0.026 | 0.987 ± 0.12
B7Z9C2 and related entries (UniProt P55209) | 0.995 ± 0.012 | 1 ± 0.017
B1AP13 and related entries (UniProt P08174) | 1.02 ± 0.039 | 1.039 ± 0.0082
B1AK44 and related entries (UniProt Q9UI95) | 1.042 ± 0.0094 | 0.949 ± 0.023
D6RD47 and related entries (UniProt P62266) | 1.06 ± 0.018 | 1 ± 0.06
B8ZZY7 and related entries (UniProt P84101) | 0.958 ± 0.05 | 0.998 ± 0.065
PGP (UniProt A6NDG6) | 1.02 ± 0.023 | 0.982 ± 0.033
C9JI46 and related entries (UniProt Q8N3X6) | 0.976 ± 0.053 | 0.967 ± 0.049
A6NMH8 and related entries (UniProt P60033) | 0.97 ± 0.038 | 0.97 ± 0.04
CCDC85C (UniProt A6NKD9) | 0.995 ± 0.021 | 0.984 ± 0.028
E2QRF9 and related entries (UniProt O75496) | 0.981 ± 0.032 | 0.993 ± 0.016
B2R5W2 and related entries (UniProt P07910) | 0.954 ± 0.15 | 1.03 ± 0.11
C9JRJ5 and related entries (UniProt Q9UGP4) | 1.02 ± 0.019 | 1.02 ± 0.065
B4DEM9 and related entries (UniProt Q9Y2S7) | 0.985 ± 0.015 | 0.992 ± 0.065
E5RHW4 and related entries (UniProt O94905) | 1.01 ± 0.08 | 1.03 ± 0.097
A6PW57 and related entries (UniProt Q99755) | 1.03 ± 0.016 | 1.0476 ± 0.00044
UniProt A2RTX5 and related entries | 1.06 ± 0.013 | 1.02 ± 0.022
B4DQT1 and related entries (UniProt Q7L5Y9) | 1 ± 0.021 | 0.974 ± 0.023
B4E0Y9 and related entries (UniProt Q9P289) | 0.986 ± 0.03 | 1.01 ± 0.004
GTPBP10 (UniProt A4D1E9) | 0.988 ± 0.013 | 1.01 ± 0.013
D6RA71 and related entries (UniProt P78317) | 0.994 ± 0.012 | 0.997 ± 0.038
B7ZL14 and related entries (UniProt Q96RU3) | 1 ± 0.032 | 1.02 ± 0.061
C9J066 and related entries (UniProt Q8N4C6) | 1.03 ± 0.047 | 1.04 ± 0.067

Target | NP40-soluble protein abundance (concentration: 0.1mM) | NP40-soluble protein abundance (concentration: 0.5mM)
A8MWD9 and related entries (UniProt P62308+A8MWD9) | 1.09 ± 0.024 | 1.07 ± 0.029
C9JJQ8 and related entries (UniProt P68366) | 1.04 ± 0.014 | 0.998 ± 0.035
B0QXZ5 and related entries (UniProt O96015) | 1.01 ± 0.019 | 0.999 ± 0.012
B4DLJ1 and related entries (UniProt Q15853) | 0.996 ± 0.053 | 1 ± 0.048
D6RFW1 and related entries (UniProt Q96EQ0) | 0.989 ± 0.038 | 1.06 ± 0.065
C9IY68 and related entries (UniProt Q9BQ75) | 0.996 ± 0.051 | 1 ± 0.044
B4DKB2 and related entries (UniProt P42892) | 1.02 ± 0.028 | 1.04 ± 0.037
A9IYQ1 and related entries (UniProt Q9NTI5) | 1.001 ± 0.0091 | 1 ± 0.012
B3KVZ3 and related entries (UniProt Q9H3R5) | 1.03 ± 0.024 | 1.04 ± 0.023
D6RC04 and related entries (UniProt Q9Y6G5) | 1.01 ± 0.048 | 1.02 ± 0.056
D6RAJ6 and related entries (UniProt Q9UKT5) | 0.987 ± 0.032 | 1.01 ± 0.048
A6NG10 and related entries (UniProt Q969T9) | 1 ± 0.02 | 0.998 ± 0.038
C9JJ34 and related entries (UniProt P43487) | 0.997 ± 0.1 | 1.03 ± 0.1
B0QXZ9 and related entries (UniProt Q9UGU5) | 1.01 ± 0.036 | 1.01 ± 0.018
A6NFX8 and related entries (UniProt Q9UKK9) | 1.04 ± 0.025 | 1.02 ± 0.065
UniProt A6QL63 and related entries | 0.978 ± 0.019 | 1.01 ± 0.047
C9JA28 and related entries (UniProt Q9UNL2) | 1.01 ± 0.014 | 1.03 ± 0.063
UniProt A4D1P6 and related entries | 1.032 ± 0.009 | 1.04 ± 0.074
B7ZM99 and related entries (UniProt Q6UB35) | 0.996 ± 0.015 | 0.995 ± 0.044
C9J470 and related entries (UniProt Q15003) | 0.993 ± 0.013 | 1.01 ± 0.052
C9J2P0 and related entries (UniProt P51965) | 0.972 ± 0.019 | 1 ± 0.034
B5MCN7 and related entries (UniProt Q15788) | 1.01 ± 0.034 | 0.975 ± 0.017
B1AMW1 and related entries (UniProt P19256) | 0.996 ± 0.045 | 1.09 ± 0.11
B0QY89 and related entries (UniProt Q9Y262) | 1.04 ± 0.019 | 1.02 ± 0.085
B7Z5R0 (UniProt Q9BV97) | 0.994 ± 0.031 | 1.01 ± 0.031

Target | NP40-soluble protein abundance (concentration: 0.1mM) | NP40-soluble protein abundance (concentration: 0.5mM)
B4E2Q0 and related entries (UniProt P98194) | 1 ± 0.051 | 0.979 ± 0.032
UniProt B4DLN1 | 1.04 ± 0.053 | 0.981 ± 0.092
D3YTK1 and related entries (UniProt Q9C0K0) | 1.03 ± 0.073 | 1.04 ± 0.058
B7Z779 and related entries (UniProt Q96A25) | 0.986 ± 0.014 | 1.01 ± 0.044
D6REX3 and related entries (UniProt O94979) | 0.998 ± 0.033 | 1 ± 0.027
C5orf51 (UniProt A6NDU8) | 0.991 ± 0.029 | 0.991 ± 0.015
B9A057 and related entries (UniProt Q86WW8) | 1.03 ± 0.05 | 1.05 ± 0.018
B8ZZC8 and related entries (UniProt Q9NRN9) | 0.992 ± 0.0095 | 1.001 ± 0.008
A2IDA3 and related entries (UniProt P29372) | 1.01 ± 0.024 | 1.01 ± 0.045
B4DR80 and related entries (UniProt Q9Y6E0) | 0.967 ± 0.028 | 0.997 ± 0.014
KIAA1147 (UniProt A4D1U4) | 1.01 ± 0.02 | 1 ± 0.011
B4DH23 and related entries (UniProt Q9NTJ4) | 1.02 ± 0.023 | 1.01 ± 0.064
A6NMT1 and related entries (UniProt Q9BY41) | 1.01 ± 0.022 | 0.975 ± 0.042
C9J5C3 and related entries (UniProt Q9BUL8) | 1.01 ± 0.032 | 1.04 ± 0.015
B4DTY2 and related entries (UniProt O15304) | 0.987 ± 0.067 | 0.986 ± 0.03
A8K7Q2 and related entries (UniProt P11142) | 0.995 ± 0.022 | 1.02 ± 0.06
B4DJL6 and related entries (UniProt Q96SY0) | 0.98 ± 0.027 | 0.98 ± 0.024
D6RB01 and related entries (UniProt Q9Y6X4) | 0.998 ± 0.037 | 1.03 ± 0.044
A8MUM1 and related entries (UniProt Q53HC9) | 1 ± 0.039 | 0.988 ± 0.058
C9JIF9 and related entries (UniProt P13798) | 0.988 ± 0.012 | 0.949 ± 0.037
B4E1E4 and related entries (UniProt O60573) | 0.984 ± 0.02 | 0.948 ± 0.024
B4DR61 and related entries (UniProt P61619) | 1.06 ± 0.069 | 0.977 ± 0.17

Record cards, as listed above. Order of values: NP40-soluble protein abundance (concentration: 0.1mM) | NP40-soluble protein abundance (concentration: 0.5mM)
C9JIF9 and related entries (UniProt P13798) in the list: 0.988 ± 0.012 | 0.949 ± 0.037
C9J5C3 and related entries (UniProt Q9BUL8) in the list: 1.01 ± 0.032 | 1.04 ± 0.015
B7Z779 and related entries (UniProt Q96A25) in the list: 0.986 ± 0.014 | 1.01 ± 0.044
A8MUM1 and related entries (UniProt Q53HC9) in the list: 1 ± 0.039 | 0.988 ± 0.058
